Residue numbers refer to the chain shown, from its start. Results are given in words; binding and its absence hold for the method and conditions named. Binding seen in cells or lysates may run through a third protein. Some binding calls cover weakened binding; strength is not graded here. Tags and fused reporters may be left off the sequences shown.
Assays:
[1] = target: T1, GST fused to the unmutated aconitase (Aco1) C-terminal domain (yeast (S. cerevisiae)) (UniProt P19414); assay: pull-down; purified Ssa1 (GenScript) added in increasing amounts to mixed yeast lysates with GST-C and HA-Aco1 or HA-N; read out as loss of the HA protein from the GST pull-down; only the binder purified
T1 sequence: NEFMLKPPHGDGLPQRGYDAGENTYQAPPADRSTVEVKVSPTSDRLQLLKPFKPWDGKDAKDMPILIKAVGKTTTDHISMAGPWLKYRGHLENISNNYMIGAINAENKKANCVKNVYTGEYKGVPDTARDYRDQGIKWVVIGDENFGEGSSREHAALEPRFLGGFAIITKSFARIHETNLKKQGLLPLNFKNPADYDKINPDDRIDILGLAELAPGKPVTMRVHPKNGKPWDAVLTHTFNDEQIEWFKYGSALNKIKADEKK

Amino acid sequences for entries named in this document (tags omitted).
UniProt P10591: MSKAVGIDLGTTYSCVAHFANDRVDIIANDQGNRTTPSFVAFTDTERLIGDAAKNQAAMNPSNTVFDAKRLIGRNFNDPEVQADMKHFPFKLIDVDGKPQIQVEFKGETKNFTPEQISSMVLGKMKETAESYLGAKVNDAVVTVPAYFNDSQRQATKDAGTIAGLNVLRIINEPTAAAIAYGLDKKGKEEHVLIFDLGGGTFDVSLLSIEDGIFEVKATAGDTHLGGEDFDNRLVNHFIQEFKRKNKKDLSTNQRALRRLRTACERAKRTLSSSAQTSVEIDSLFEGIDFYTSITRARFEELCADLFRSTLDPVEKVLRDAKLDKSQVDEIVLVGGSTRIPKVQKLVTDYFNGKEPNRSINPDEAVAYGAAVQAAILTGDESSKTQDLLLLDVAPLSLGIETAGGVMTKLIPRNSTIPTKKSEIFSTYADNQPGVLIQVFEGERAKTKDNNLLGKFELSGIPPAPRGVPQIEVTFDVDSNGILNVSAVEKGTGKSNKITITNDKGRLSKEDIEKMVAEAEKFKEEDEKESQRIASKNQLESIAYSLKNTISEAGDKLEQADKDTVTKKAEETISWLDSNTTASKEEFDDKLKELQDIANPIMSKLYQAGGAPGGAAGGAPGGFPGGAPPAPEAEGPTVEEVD

[2] = target: T2, GST fused to the aconitase C-terminal domain lacking the last 6 amino acids (yeast (S. cerevisiae)) (UniProt P19414); assay: pull-down; lysates of yeast cells expressing GST-aconitase fusions, on glutathione sepharose beads; endogenous Ssa1 detected by Western blot with anti-Ssa1 antiserum
T2 sequence: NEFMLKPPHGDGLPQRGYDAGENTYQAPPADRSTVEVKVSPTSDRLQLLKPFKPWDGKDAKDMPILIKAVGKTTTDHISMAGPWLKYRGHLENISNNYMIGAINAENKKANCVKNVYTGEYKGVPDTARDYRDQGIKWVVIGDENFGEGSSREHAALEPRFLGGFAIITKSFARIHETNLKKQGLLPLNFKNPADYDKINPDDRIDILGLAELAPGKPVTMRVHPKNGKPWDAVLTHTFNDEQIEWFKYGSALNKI

[3] = target: T3, GST fused to the full mature aconitase (yeast (S. cerevisiae)) (UniProt P19414); assay: as above
T3 sequence: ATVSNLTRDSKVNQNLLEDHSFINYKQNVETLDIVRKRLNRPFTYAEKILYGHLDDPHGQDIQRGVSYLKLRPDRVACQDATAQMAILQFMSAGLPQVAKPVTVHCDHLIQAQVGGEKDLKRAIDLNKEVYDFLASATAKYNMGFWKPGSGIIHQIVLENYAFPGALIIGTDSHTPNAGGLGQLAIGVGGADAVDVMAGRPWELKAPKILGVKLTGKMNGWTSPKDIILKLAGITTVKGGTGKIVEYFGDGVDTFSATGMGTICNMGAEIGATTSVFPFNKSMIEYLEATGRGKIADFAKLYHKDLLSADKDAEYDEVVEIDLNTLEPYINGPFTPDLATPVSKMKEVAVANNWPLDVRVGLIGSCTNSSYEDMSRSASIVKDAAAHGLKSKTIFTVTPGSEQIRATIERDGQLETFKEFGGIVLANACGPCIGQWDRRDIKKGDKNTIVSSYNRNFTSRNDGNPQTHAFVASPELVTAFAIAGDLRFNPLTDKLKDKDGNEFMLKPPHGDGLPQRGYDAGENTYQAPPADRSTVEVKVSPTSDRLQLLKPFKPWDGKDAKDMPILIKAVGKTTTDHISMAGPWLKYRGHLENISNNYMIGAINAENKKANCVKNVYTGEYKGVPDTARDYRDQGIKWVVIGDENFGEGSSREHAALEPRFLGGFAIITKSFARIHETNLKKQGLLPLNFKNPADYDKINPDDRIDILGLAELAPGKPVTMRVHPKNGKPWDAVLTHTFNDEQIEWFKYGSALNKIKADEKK

[4] = target: T1, GST fused to the unmutated aconitase (Aco1) C-terminal domain (yeast (S. cerevisiae)); assay: as above
[5] = target: T4, GST-Aco1 K86A (yeast (S. cerevisiae)) (UniProt P19414); assay: as above
T4 sequence: T3 sequence with K70A

[6] = target: T1, GST fused to the unmutated aconitase (Aco1) C-terminal domain (yeast (S. cerevisiae)); assay: pull-down; separate yeast lysates expressing GST-C and HA-N or HA-Aco1, mixed and incubated for 2 hours in vitro; glutathione sepharose beads; Western blot with GST and HA antisera
[7] = target: T1, GST fused to the unmutated aconitase (Aco1) C-terminal domain (yeast (S. cerevisiae)); assay: pull-down; separate yeast lysates (GST-C and HA-Aco1 or HA-N), mixed with increasing amounts of purified Ssa1 and incubated for two hours before GST pull-down; BSA as unrelated control protein
[8] = target: T2, GST fused to the aconitase C-terminal domain lacking the last 6 amino acids (yeast (S. cerevisiae)); assay: pull-down; lysates of yeast cells co-expressing GST and HA fusions, on glutathione beads; lysis buffer 50 mM Tris-HCl, 150 mM KCl, 1% NP-40; 4 °C, 2 hours; Western blot with anti-GST and anti-HA
[9] = target: T1, GST fused to the unmutated aconitase (Aco1) C-terminal domain (yeast (S. cerevisiae)); assay: as above

Measured: binding

Purified Ssa1 (GenScript) (from UniProt P10591 1-642)
binds: [1]

Ssa1 (cytosolic Hsp70), endogenous (from UniProt P10591 1-642)
binds: [2] | [3] | [4] | [5]

B1: HA-tagged full Aco1 mature protein sequence, lacking its MTS (protein, UniProt P19414 17-778)
chain: T3 sequence
binds: [6] | [7] | [8] | [9]

Reference: article PMC5897410
